About 2,100 (0.66%) of roughly 320,000 compounds were called active. This list was built around the results that the source calls inconclusive (neither active nor inactive); the mix of calls is not that of the screen. Calls follow the shape of the dose curve; as a rule, active = well fitted inhibition curve with a large enough effect in the signal ratio, with a control signal flat (not every such curve was filed as active); inconclusive = small, poorly fitted or top-dose-only effect, or effect the other way, or a change in a side signal; inactive = flat fitted curve, though single readings scatter; the % refers to the signal ratio. Potencies of inconclusive entries are doubtful fits and often do not repeat.
Assay: qHTS Assay for Lipid Storage Modulators in Drosophila S3 Cells
Conditions: BODIPY lipid droplet fluorescence, 18-24 h, cells fed with added oleic acid; lipid storage change, negative = inhibition: at 46.1 µM (top of the series) unless noted
Summary of the method: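 Drosophila S3 cells got compounds at several concentrations plus oleic acid (400 uM solution). Laser-scanning cytometry with 488 nm excitation read lipid droplets at 500-530 nm and cells at 575-640 nm. Percent activity was relative to 20 uM Triacsin C.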
% is scaled to controls: 0 for no effect and ±100 for the full control effect; potency is read from the fitted curve at half-maximal effect.

Lipid storage change, negative = inhibition, inactive:
COc1ccc(NC(=O)C2C(c3ccccc3)C2(Cl)Cl)cc1 (centres undefined) -5.18%

Lipid storage change, negative = inhibition, inconclusive:
CCOC(=O)N1CCN(S(=O)(=O)c2cc(C)c(C)cc2C)CC1 -22.2%
O=C(O)COCC(=O)Nc1ccc(-n2cnnn2)cc1 -76.2%
COc1ccc(CNC(=O)CN(Cc2ccco2)C(=O)CNS(=O)(=O)c2ccccc2)cc1 64.7%
COc1ccccc1C(=O)NNC(=O)c1sccc1-n1cccc1 12.2% [at 9.22 µM]
CC1CCN(S(=O)(=O)c2ccc(NC(=O)CCNC(=O)c3ccc(Cl)cc3)cc2)CC1
O=C1CSC(c2ccccc2[N+](=O)[O-])N1c1ccccc1 (centres undefined) 15.3%
CCOC(=O)N1CCC(NC(=O)C(C)n2c3ccccc3c3cnn(C)c(=O)c32)CC1 (centres undefined) 15.1%
CC(=O)N1CCN(C(=O)c2ccc(S(=O)(=O)Nc3ccccc3F)cc2)CC1 -61.6%
CC(C)(C)n1ncc2c(=O)n(Cc3ccc(Cl)c(Cl)c3)cnc21 -28.7%
COc1cccc(C(CC(=O)Nc2cccc3ccccc23)NC(=O)c2ccccc2)c1 (centres undefined) -44.6%
CCCOc1ccc(CCC(=O)N/N=C/c2ccc([N+](=O)[O-])o2)cc1 -19.8%
O=C(CN1CCCCC1)NC(=O)NC1CCCCC1 20.2%
CS(=O)(=O)N1CC(C(=O)O)Oc2ccc(CC(=O)O)cc21 (centres undefined) -18.5%
COc1ccc(N(C)S(=O)(=O)c2cccc(C(=O)NC3CCCCCC3)c2)cc1 10.5%
C=CCNCc1ccc(C(=O)NCCCCCCC)cc1[N+](=O)[O-] 3.1%
CSc1ccc(C(=O)/C=C/c2ccc(N)cc2)cc1 21%
CC(=O)c1cccc(NC(=O)COC(=O)COc2c(Cl)cc(Cl)c3ccc(C)nc23)c1 14.6%
N=C1c2ccccc2CN1NC(=O)c1cccc(S(=O)(=O)N2CCOCC2)c1 -1.74%
CC(C)c1nnc(NC(=O)C2CCN(C(=O)c3ccco3)CC2)s1 255%
O=C(c1cccn2c(=O)c3cc(Br)ccc3nc12)N1CCN(c2ccccn2)CC1 163%
COc1ccc(OCC(=O)OC2CCN(C)CC2)cc1 30.7%
COc1ccc(NS(=O)(=O)c2ccc(OC)c3ccccc23)cn1 -12.8%
COc1ccccc1N1CC(C(=O)Nc2nnc(SCC(=O)N3CCOCC3)s2)CC1=O (centres undefined) 82.5%
CCc1sc(C(=O)Nc2nccs2)cc1C -52.4%
COC(=O)c1ccc(C(=O)Nc2nnc(-c3cccnc3)o2)cc1 15.4% [at 9.22 µM]
Cc1noc(C)c1CSCC(=O)Nc1nc2ccc(F)cc2s1 -70.9% [at 0.0737 µM]
COc1ccc(NC(=O)NNC(=O)c2cc3ccccc3cc2O)cc1 -30.2% [at 0.00295 µM]
O=Cc1ccc(-c2ccc(Cl)cc2Cl)[nH]1 -13.8%
O=C1/C(=C/C=C/c2ccco2)SC(=S)N1NS(=O)(=O)c1ccccc1 28.6%
Cc1ccccc1N1CCN(C(=O)NCc2cccc(Cl)c2)CC1 20.2%
COc1ccccc1-c1cc(C(=O)N2CCN(S(=O)(=O)c3ccc(C)cc3)CC2)[nH]n1 -71.3%
CC1(C)CC(NC(=O)Cc2ccccc2[N+](=O)[O-])CC(C)(C)N1 -1.46%
Cn1c2c(c(=O)n(C)c1=O)CN(CCN1CCNCC1)CN2 11.3%
N#CCCN(Cc1cccnc1)C(=O)c1ccc(S(=O)(=O)N2CCOCC2)cc1 6.84%
CN(c1cccc(NC(=O)c2ccc(N(C)S(=O)(=O)c3ccccc3)cc2)c1)S(C)(=O)=O -52.4%
O=C1C2CCCN2C(=O)N1CCCCN1CCN(c2cccc(C(F)(F)F)c2)CC1 (centres undefined) -0.644%
COC(=O)Cc1[nH]n(-c2ccccc2)c(=O)c1C(C)=Nc1ccccc1 71.3%
Cc1ccccc1NC(=O)c1ccc(CN(c2ccccc2)S(=O)(=O)c2ccccc2)cc1 28.7%
Cc1onc(-c2ccccc2Cl)c1C(=O)Nc1cccc2cccnc12 36.6%
Cc1ccc(O)c(NC(=S)NC(=O)Cc2ccc(Cl)cc2)c1 17%
CCOC(=O)C1CCCN(C(=S)Nc2ccc(OC)cc2)C1 (centres undefined) 29.9%
CCn1nnc(NC(=O)c2ccccc2Br)n1 -118%
CNC(=O)c1c(NC(=O)c2cccc(N3C(=O)CCC3=O)c2)sc2c1CCC2 51.7%
CC1CCC(NCC(=O)Nc2cccc(S(N)(=O)=O)c2)CC1 (centres undefined) 33.3%

Sorted by SMILES length (largest number first): some entries from above.
Lipid storage change, negative = inhibition, inconclusive:
CC1(C)CC(NC(=O)Cc2ccccc2[N+](=O)[O-])CC(C)(C)N1 -1.46%
COc1ccccc1C(=O)NNC(=O)c1sccc1-n1cccc1 12.2% [at 9.22 µM]
O=C(CN1CCCCC1)NC(=O)NC1CCCCC1 20.2%

Two entries picked at random from those above:
Lipid storage change, negative = inhibition, inconclusive:
CC1CCC(NCC(=O)Nc2cccc(S(N)(=O)=O)c2)CC1 (centres undefined) 33.3%
CCOC(=O)N1CCC(NC(=O)C(C)n2c3ccccc3c3cnn(C)c(=O)c32)CC1 (centres undefined) 15.1%

Following part:

Potency, inconclusive:
COc1ccc(CNC(=O)CC(C)S(=O)(=O)c2ccc3c(c2)NC(=O)CO3)cc1 (centres undefined) 25.9 µM [activator, single point]
CC(C)OCC1Cn2c(nc3c2c(=O)n(C)c(=O)n3C)O1 (centres undefined) 32.6 µM [falling, single point]
O=[N+]([O-])c1cc(C(F)(F)F)ccc1Oc1cccnc1[N+](=O)[O-] 7.31 µM [falling, partial curve, poor fit]
COc1ccc2ccccc2c1/C=N/NC(=O)c1nnn(-c2nonc2N)c1C(C)C 0.461 µM [activator, partial curve, poor fit]
CC(NC(=O)Cc1ccsc1)c1ccc(Cl)cc1Cl (centres undefined) 4.11 µM [falling, single point]
COc1ccc(OC)c(CN2CCCCCC2)c1 25.9 µM [activator, single point]
CCNC(=S)N(CCCO)Cc1cc2cc3c(cc2[nH]c1=O)OCCO3 20.6 µM [falling, single point]
Cc1ccc(/C=N/n2c(-c3cccnc3)n[nH]c2=S)o1 1.84 µM [falling, partial curve]
C=CCn1c(C)cc(C(=O)CSc2nnc(-c3cccc(S(=O)(=O)N(CC)CC)c3)o2)c1C 1.03 µM [activator, full curve, poor fit]
COc1ccc(-n2cnnc2SCC(=O)c2ccc(S(=O)(=O)N3CCOCC3)cc2)cc1 23.1 µM [activator, single point]
O=[N+]([O-])c1cc(/C=N/n2c(-c3cccnc3)n[nH]c2=S)ccc1Cl 18.4 µM [falling, partial curve]
Cc1ccc(C(=O)N/C(=C/c2ccco2)C(=O)OCN2C(=O)c3ccccc3C2=O)cc1 4.61 µM [activator, partial curve, poor fit]
CCn1c(COc2cccc(C)c2)nnc1SCC(=O)CC(=O)Nc1ccccc1OC 0.13 µM [activator, full curve, poor fit]
CC(C)Cn1c(-c2ccco2)nc2c(c(=O)c3ccccc3n2C)c1=O 6.51 µM [rising, partial curve]
CCOCCn1c(CN2CCN(CCO)CC2)nc2c1c(=O)n(C)c(=O)n2C 1.84 µM [activator, full curve]
COc1cc(CNC(=O)c2ccc(Cn3nc(C)c(Cl)c3C)o2)cc(OC)c1 6.51 µM [activator, partial curve, poor fit]
Cc1cc(NC(=O)CSc2nccn2-c2cccc(C)c2C)no1 6.51 µM [falling, single point]
COc1ccc(OC)c(CN2CCC(Cc3ccccc3)CC2)c1 29.1 µM [falling, single point]
CC(C)CNC(=O)CN1c2cccc3cccc(c23)S1(=O)=O 29.1 µM [activator, single point]
COc1ccccc1CN(C)CC(=O)NC(=O)NC1CCCCC1 6.51 µM [activator, partial curve]
Cc1ccc(S(=O)(=O)N/N=C\c2cn(CC(N)=O)c3ccccc23)cc1C 6.51 µM [activator, single point]
CC(C)Cc1cc(CNC(=O)C2CCC(=O)N(CCc3cccc(F)c3)C2)on1 (centres undefined) 0.146 µM [activator, full curve, poor fit]
CCN(CC)C(=O)n1c(Cc2ccccc2)nc2ccccc21 20.6 µM [falling, single point]
COc1ccc(S(=O)(=O)N(C)c2ccc(C(=O)NCc3ccccn3)cc2)cc1 23.1 µM [activator, single point]
COc1cc(NC(=O)c2ccc(COCC(F)(F)F)cc2)cc(OC)c1OC 29.1 µM [falling, single point]
Cc1ccc(S(=O)(=O)N(C)CC(=O)Nc2nnc(CC(C)C)s2)cc1 4.11 µM [activator, full curve, poor fit]
COc1ccccc1Nc1nc(N)nc(CN2CCCCCC2)n1 1.46 µM [falling, partial curve]
Cc1ccc(C)c(S(=O)(=O)N/N=C2/CCCc3ccccc32)c1 0.0046 µM [activator, full curve, poor fit]

outcome, inactive:
O=C(CCl)N1c2ccccc2OCC1c1ccccc1 (centres undefined) inactive [at 46.1 µM]
